Laboratory results: PubChem BioAssay AID504764 (Drosophila RNAi Screening Center, 2011)

- Assay: 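Knock-downs that raise or lower a Notch target reporter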 (primary screen)
- Cells: Drosophila Kc167 cells
- Reagents: long dsRNA against Drosophila genes
- Duration: about 5 days (4 days dsRNA, then 24 h after transfection)
- Challenge: transfection of constitutively active membrane-tethered Notch lacking the extracellular domain, read 24 h later
- Measurement: 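Firefly luciferase from an E(spl)m3 reporter with active Notch, plus control-promoter and uninduced reporter wells for normalisation; unnormalised counts, duplicate wells a and b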
- Scale: induced reporter light, run 1, well a and induced reporter light, run 1, well b: higher = more light from the Notch target reporter with active Notch; control promoter light, run 1, well a and control promoter light, run 1, well b: higher = more light from the viral control promoter (cell number, transfection, viability); uninduced reporter light, run 1, well a: higher = more light from the Notch target reporter without active Notch
- Hit rule: 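Hit if the duplicate-averaged log2 ratio of induced to control-promoter light gives a plate-wise z beyond ±2, or induced to uninduced beyond ±1.8; weak-control or discordant-duplicate wells dropped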
- Meaning of the calls: active = modifier hit (raised or lowered Notch signal); inactive = not a hit
The screen tested about 22,000 reagents; shown is a random part of those with a known target gene and a result. Of all reagents, 403 (1.9%) were called active. 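Unnormalised raw counts per well; ratio z-scores behind the hit calls and whether each hit raises or lowers signal are not deposited.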 Names joined by + are all predicted targets of the reagent. The record does not give: the amount of reagent.

predicted target	amplicon	induced reporter light, run 1, well a	induced reporter light, run 1, well b	control promoter light, run 1, well a	control promoter light, run 1, well b	uninduced reporter light, run 1, well a	Outcome
Bet5	DRSC14600	1.33e5	1.24e5	1.35e5	1.32e5	10900	inactive
CG31886	DRSC03248	2.49e5	2.60e5	1.91e5	1.93e5	19540	inactive
Snx3	DRSC16027	98285	79395	82715	65290	4580	inactive
Acn	DRSC02062	1.50e5	1.51e5	93375	1.16e5	12920	inactive
pre-mod(mdg4)-Z + mod(mdg4) + pre-mod(mdg4)-T	DRSC13477	67130	52610	79975	61480	8350	inactive
pre-mod(mdg4)-Z + mod(mdg4) + pre-mod(mdg4)-T	DRSC17001	1.94e5	1.67e5	2.56e5	2.59e5	16825	inactive
geminin	DRSC04984	33300	29375	28720	39880	1755	inactive
CG6931	DRSC10750	81040	85265	81915	30885	10230	active
Ilp8	DRSC10076	2.36e5	1.66e5	2.46e5	1.82e5	10840	inactive
ttk	DRSC14078	78740	98110	1.13e5	1.07e5	7365	inactive
ttk	DRSC17091	43220	49210	1.63e5	1.25e5	5845	active
CG14313	DRSC14792	1.39e5	1.31e5	1.67e5	1.80e5	11840	inactive
CG13728	DRSC10056	2.47e5	1.85e5	2.43e5	2.12e5	6750	inactive
eIF2A	DRSC11825	1.17e5	1.17e5	67215	71135	8335	inactive
elgi	DRSC10242	97265	91205	66220	59735	7500	inactive
Pp4-19C	DRSC20559	58695	62245	52775	55595	4890	inactive
Pp4-19C	DRSC21251	56750	50995	66845	72680	4730	inactive
Sptr	DRSC18719	2.69e5	2.32e5	3.90e5	3.10e5	18375	inactive
CG12516	DRSC14524	1.42e5	1.17e5	1.78e5	1.81e5	10000	inactive
CG2889	DRSC18236	1.05e5	1.19e5	1.36e5	1.58e5	7282	inactive
Gasp	DRSC12349	1.12e5	1.17e5	67030	73120	8760	inactive
sti	DRSC09739	1.62e5	1.16e5	2.08e5	1.63e5	9160	inactive
sti	DRSC09740	2.65e5	1.59e5	2.18e5	22785	16065	inactive
CG1946	DRSC06804	1.65e5	2.00e5	2.20e5	1.76e5	15135	inactive
Klp59D	DRSC04118	2.08e5	1.65e5	1.59e5	1.23e5	11660	inactive
CG1695	DRSC20538	82140	93610	1.02e5	1.58e5	11240	inactive
Ugt316A1	DRSC10376	1.30e5	1.27e5	1.38e5	88935	7270	inactive
CG13049	DRSC09930	1.71e5	1.58e5	1.60e5	2.24e5	9540	inactive
CG1542	DRSC15035	42985	43720	57920	49035	2300	inactive
Rok	DRSC20277	80760	66770	79075	62975	4520	active
l(1)G0289	DRSC18215	1.92e5	1.82e5	2.71e5	2.34e5	12635	inactive

7 successive records from above, for reference:
predicted target	amplicon	induced reporter light, run 1, well a	induced reporter light, run 1, well b	control promoter light, run 1, well a	control promoter light, run 1, well b	uninduced reporter light, run 1, well a	Outcome
Ilp8	DRSC10076	2.36e5	1.66e5	2.46e5	1.82e5	10840	inactive
ttk	DRSC14078	78740	98110	1.13e5	1.07e5	7365	inactive
ttk	DRSC17091	43220	49210	1.63e5	1.25e5	5845	active
CG14313	DRSC14792	1.39e5	1.31e5	1.67e5	1.80e5	11840	inactive
CG13728	DRSC10056	2.47e5	1.85e5	2.43e5	2.12e5	6750	inactive
eIF2A	DRSC11825	1.17e5	1.17e5	67215	71135	8335	inactive
elgi	DRSC10242	97265	91205	66220	59735	7500	inactive

The list goes on:
predicted target	amplicon	induced reporter light, run 1, well a	induced reporter light, run 1, well b	control promoter light, run 1, well a	control promoter light, run 1, well b	uninduced reporter light, run 1, well a	Outcome
TfIIFalpha	DRSC12608	23420	22150	29370	22945	1875	inactive
NitFhit	DRSC08680	1.45e5	1.06e5	1.78e5	1.52e5	8395	inactive
CG32694	DRSC17844	84490	84080	1.30e5	1.08e5	7225	inactive
CG32694	DRSC17855	1.16e5	1.11e5	1.65e5	1.55e5	10470	inactive
CG32694	DRSC22670						inactive
CG13806	DRSC08341	1.12e5	1.08e5	1.96e5	1.84e5	5210	inactive
CG7509	DRSC08596	1.74e5	1.09e5	91020	40760	13442	inactive
ecd	DRSC08574	62150	57750	91285	1.02e5	4800	inactive
CG5199	DRSC11770	1.38e5	1.48e5	1.54e5	1.25e5	8295	inactive
CG31952	DRSC00428	1.41e5	1.18e5	1.36e5	1.04e5	7355	inactive
CG31952	DRSC21997						inactive
msl-2	DRSC00829	1.57e5	1.71e5	1.41e5	1.57e5	14738	inactive
CG8833	DRSC11050	93010	1.21e5	67970	78185	8075	inactive
Galphas	DRSC04616	1.99e5	2.11e5	1.60e5	1.58e5	15950	inactive
NKAIN	DRSC04531	1.74e5	2.07e5	1.61e5	2.00e5	13020	inactive
Scp2	DRSC13166	1.91e5	1.73e5	2.00e5	1.69e5	10915	inactive
Scp2	DRSC16854	2.77e5	2.56e5	2.78e5	3.00e5	20790	inactive
CG6678	DRSC16092	2.03e5	1.69e5	2.05e5	2.59e5	15030	inactive
Cp110	DRSC20630	1.53e5	1.26e5	89310	60405	9960	inactive
